This is an account of results in publication PMC7819943, “Rice protein-binding microarrays: a tool to detect cis-acting elements near promoter regions in rice”.

Protein sequences, listed by entry. Tags and fused reporters are not part of them.
UniProt Q0JBA9, entry or part of it: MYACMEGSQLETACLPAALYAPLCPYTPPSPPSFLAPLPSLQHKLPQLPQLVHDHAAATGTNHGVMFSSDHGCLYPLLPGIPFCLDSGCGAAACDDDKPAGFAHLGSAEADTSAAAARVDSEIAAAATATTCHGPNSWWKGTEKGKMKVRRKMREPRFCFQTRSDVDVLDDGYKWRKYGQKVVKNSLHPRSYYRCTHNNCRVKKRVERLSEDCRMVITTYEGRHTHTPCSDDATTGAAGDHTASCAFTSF

This is one part of the list.

The test has as its target OsWRKY34 (Oryza sativa, UniProt Q0JBA9 1-250). Put plainly: protein-binding microarray (RPBM); PBS, 2% BSA, 51.3 ng/ul salmon testes DNA, 50 uM zinc acetate, 200 nM TF, 25 C, 1 h; high values mean tight binding. To be noted: protein: recombinant; tags: N-terminal polyhistidine and DsRed monomer fusion (pET32a); label: CyDye5-dUTP incorporated in the synthesized complementary strand; 3' TTTTT single-stranded linker to array surface; dsDNA, one strand shown. The procedure, abridged: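 Transcription factors, each fused N-terminally to a polyhistidine tag and DsRed, were expressed in E. coli BL21-CodonPlus and purified on Ni–NTA. A custom Agilent array was made double-stranded by primer extension with Cy5-dUTP and blocked with 2% BSA. It was incubated with 200 nM protein in PBS, 2% BSA, salmon testes DNA and 50 µM zinc acetate at 25 °C for 1 h, then washed. The binding signal is per-feature fluorescence intensity (arbitrary units) read on an Axon 4000B scanner.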
Consider “CTTTGCAGTTTTGACACCCTGTGGGACGTCTACCCAGCGCCGGAGTCACCTAGTGCAG”, for which the binding signal is 8290 fluorescence intensity (a.u.). On to “CTCGTCGCCGATCCGATCCGCCTCCGCCTCCGCCTCGCGGCGGAGTCACCTAGTGCAG”, for which the binding signal is 10100 fluorescence intensity (a.u.). With “ACCCTAAGGGTCTCATCTTTTCGCTTATACTTATCAAACACGGAGTCACCTAGTGCAG” the figure was 8100 fluorescence intensity (a.u.). For “TTTTTTCATTCGTGTCCAAAAACCCCTTCCGACATCCGGTCGGAGTCACCTAGTGCAG”, the binding signal is 8330 fluorescence intensity (a.u.).

Turning to “GTCATGTTTAGGGGATGGTATGGAAGGGGAAAACAGTGTGCGGAGTCACCTAGTGCAG”, the binding signal is 8280 fluorescence intensity (a.u.). “AACGTTTGACCACTCGTCTTATTTAATTTTTTTTTGTAAACGGAGTCACCTAGTGCAG”: the binding signal was 8410 fluorescence intensity (a.u.).

Consider “CACCCATCGATATCCATCTCCATCTCATCTCGCCACCCAACGGAGTCACCTAGTGCAG”, for which the binding signal is 10300 fluorescence intensity (a.u.). Turning to “CCACCGCCGCCTCCGCGTCCCTCTGCCTCACCTCGACGCCCGGAGTCACCTAGTGCAG”, the binding signal is 12100 fluorescence intensity (a.u.). Regarding “CACACACAAACTTTTAACTTTTTCGTCACATCGTTCCAATCGGAGTCACCTAGTGCAG”, the binding signal is 8920 fluorescence intensity (a.u.). The result for “AGAGCTGCACAAGGTTTCTTTTATTGTTTGCTTATCTATTCGGAGTCACCTAGTGCAG” reads 8880 fluorescence intensity (a.u.); that for “GGTGGTTGTGTTTTCACATTCAGTAGGGTGGTGCACCGTACGGAGTCACCTAGTGCAG”, 8740 fluorescence intensity (a.u.); that for “CGCCGCCGCATCTCCTCCTTCCTCTCTTGGCAACTGTCGGCGGAGTCACCTAGTGCAG”, 8300 fluorescence intensity (a.u.).

On to “AATATTCGACGCCGTTCACTTTTTTAAATATGTTTGACCACGGAGTCACCTAGTGCAG”, for which the binding signal was 9820 fluorescence intensity (a.u.). With “TCAGATAATTTTTTTTCACATTGATCTCGATTTTGGTTTGCGGAGTCACCTAGTGCAG” the figure was 10500 fluorescence intensity (a.u.); with “GGGCGGCATCTCTCGCGCAGATCCCCACGCTTTTTCTCCGCGGAGTCACCTAGTGCAG”, 10100 fluorescence intensity (a.u.); with “GTTCATCAATCTACTGTACTGGCCTCCTTCTCAGCTCTCACGGAGTCACCTAGTGCAG”, 9300 fluorescence intensity (a.u.). With “GAAAGCTTGCAATCCGAGCATCTGTTTGTTCTATTTGTTTCGGAGTCACCTAGTGCAG” the figure was 8520 fluorescence intensity (a.u.). With “GCGCCCATGCCCACCACCGCCGCCGCCGCCGCTTCCGATGCGGAGTCACCTAGTGCAG”, the binding signal was 8590 fluorescence intensity (a.u.).

In the case of “ACTGTGTTCTTTAGTCTATTTTCCCAACTTCCCCTTTCTTCGGAGTCACCTAGTGCAG”, the binding signal was 8460 fluorescence intensity (a.u.). The result for “AGAGAATTCAGGGGCCAGCTAATATACTTGATTTTCTTCCCGGAGTCACCTAGTGCAG” reads 8420 fluorescence intensity (a.u.); that for “AAGATTTGCTGGGAGGGTGGGGTGGGGATTAGTCCCTAAACGGAGTCACCTAGTGCAG”, 24500 fluorescence intensity (a.u.); that for “GGTCACATGTAGGCCTCATTTCCATTCCAGCCCAACATTTCGGAGTCACCTAGTGCAG”, 8670 fluorescence intensity (a.u.). As to “GGGGTGTCGTCGTTCGTCCTACCGCTTCCGCCGCATCCTGCGGAGTCACCTAGTGCAG”, the binding signal was 11200 fluorescence intensity (a.u.). As for “GAGTCGGGGTGGGCTGGCGGTCGAGATGACGCAAGCGACGCGGAGTCACCTAGTGCAG”, the binding signal was 11000 fluorescence intensity (a.u.). Regarding “TACAGCACACGACTTAATTGCATGCCACCCAGATTATGACCGGAGTCACCTAGTGCAG”, the binding signal was 9180 fluorescence intensity (a.u.).

As for “TTTTTTTTTACTGCTGCCTCTCAATTTGAGTCCCTGTTAACGGAGTCACCTAGTGCAG”, the binding signal is 8800 fluorescence intensity (a.u.).

For the sequence “TGGGTGTTACATCGGACGTTTGACCGGATGTCGGAAGGGGCGGAGTCACCTAGTGCAG”, the binding signal is 9260 fluorescence intensity (a.u.).

Take “AACACAATTACTCAGATCCACCGGGACCACCACCGTCCACCGGAGTCACCTAGTGCAG”: the binding signal is 8340 fluorescence intensity (a.u.). Regarding “CCCTCGAATCCCGCGCCTGCACCGAGTGCCTGACCACAACCGGAGTCACCTAGTGCAG”, the binding signal was 9140 fluorescence intensity (a.u.). Regarding “TTTTCGGTTTCGGGTTGTTTATTTGGATATCCGAGTTTATCGGAGTCACCTAGTGCAG”, the binding signal was 8060 fluorescence intensity (a.u.).

Turning to “TTTGCGTTGCGGGGAGAGGGATATTAAAGGCAAAGGATACCGGAGTCACCTAGTGCAG”, the binding signal was 8240 fluorescence intensity (a.u.).

Regarding “CCGTATATCCGCTTACGTCACCTCGCTGCTTGGCCTTGTTCGGAGTCACCTAGTGCAG”, the binding signal is 10000 fluorescence intensity (a.u.). The result for “ACCGTTGAATTTTAGATATAAGTTTGACTATTCATCTTATCGGAGTCACCTAGTGCAG” reads 9130 fluorescence intensity (a.u.); that for “GATATGTAGATGGTGACTACAAGATTCTTTTCTTCTTTTTCGGAGTCACCTAGTGCAG”, 10100 fluorescence intensity (a.u.); that for “TGACCCCACAATCGTCCCACACCAAGCTCACAAGTCCCAACGGAGTCACCTAGTGCAG”, 9680 fluorescence intensity (a.u.). With “AGTCACACCAGCATTTGCTAATTGGCTGCTCATCTGCTGTCGGAGTCACCTAGTGCAG” the figure was 8870 fluorescence intensity (a.u.). Take “ATCCATCCGAGCTCTCTCTCTCTCTCTGTCTTCTCTCTACCGGAGTCACCTAGTGCAG”: the binding signal was 10700 fluorescence intensity (a.u.).

With “GACCATTGACCAAATAAACCTTCGCTATTGGTTGATTTGTCGGAGTCACCTAGTGCAG”, the binding signal was 8720 fluorescence intensity (a.u.).

On to “ACGCCCGCGGACTTTTGACCACCGACGCGATGTCAACCTCCGGAGTCACCTAGTGCAG”, for which the binding signal was 8210 fluorescence intensity (a.u.). The result for “TGTTGGTCAATTTGGCGTTGCCGTAATGATATGGTTTTTACGGAGTCACCTAGTGCAG” reads 9640 fluorescence intensity (a.u.); that for “TTATTATGACCATTTTTTGACTTTATGCAATTTAGCCCCTCGGAGTCACCTAGTGCAG”, 8100 fluorescence intensity (a.u.); that for “CCACATCACCAACAACTCTCGCCGCCTCACACTCGCAGATCGGAGTCACCTAGTGCAG”, 9460 fluorescence intensity (a.u.).
